From patent publication US20240390512A1, “METHODS OF TREATING CHEMOTHERAPY-RESISTANT CANCER WITH AN ANTIBODY-DRUG CONJUGATE” (DAIICHI SANKYO COMPANY, LIMITED, priority 2021, published 2024)
No constants are given. Whether binding was seen depends on the method and setting. Some binding calls cover weakened binding; strength is not graded here.

Key:
[1] = target: T1, EC1 deletion mutant of human CDH6, on cells (human) (UniProt P55285); assay: flow cytometry, transfected 293α cells, 20 nM antibody
T1 sequence: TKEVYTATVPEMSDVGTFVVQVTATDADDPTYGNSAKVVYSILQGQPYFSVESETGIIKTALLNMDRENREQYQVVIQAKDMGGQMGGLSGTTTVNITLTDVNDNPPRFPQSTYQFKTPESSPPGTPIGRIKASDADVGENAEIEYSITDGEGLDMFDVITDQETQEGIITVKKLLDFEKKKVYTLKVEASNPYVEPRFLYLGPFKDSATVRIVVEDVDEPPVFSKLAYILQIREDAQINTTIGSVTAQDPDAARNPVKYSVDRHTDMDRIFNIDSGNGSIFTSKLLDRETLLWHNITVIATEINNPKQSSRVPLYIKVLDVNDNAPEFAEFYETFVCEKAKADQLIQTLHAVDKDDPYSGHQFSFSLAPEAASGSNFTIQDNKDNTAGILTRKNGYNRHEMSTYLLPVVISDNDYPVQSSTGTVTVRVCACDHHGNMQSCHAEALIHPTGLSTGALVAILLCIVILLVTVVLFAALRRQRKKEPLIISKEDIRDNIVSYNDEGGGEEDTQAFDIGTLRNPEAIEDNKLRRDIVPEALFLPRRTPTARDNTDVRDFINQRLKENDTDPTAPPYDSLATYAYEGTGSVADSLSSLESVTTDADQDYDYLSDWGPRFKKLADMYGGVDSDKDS

[2] = target: T2, EC2 deletion mutant of human CDH6, on cells (human) (UniProt P55285); assay: as above
T2 sequence: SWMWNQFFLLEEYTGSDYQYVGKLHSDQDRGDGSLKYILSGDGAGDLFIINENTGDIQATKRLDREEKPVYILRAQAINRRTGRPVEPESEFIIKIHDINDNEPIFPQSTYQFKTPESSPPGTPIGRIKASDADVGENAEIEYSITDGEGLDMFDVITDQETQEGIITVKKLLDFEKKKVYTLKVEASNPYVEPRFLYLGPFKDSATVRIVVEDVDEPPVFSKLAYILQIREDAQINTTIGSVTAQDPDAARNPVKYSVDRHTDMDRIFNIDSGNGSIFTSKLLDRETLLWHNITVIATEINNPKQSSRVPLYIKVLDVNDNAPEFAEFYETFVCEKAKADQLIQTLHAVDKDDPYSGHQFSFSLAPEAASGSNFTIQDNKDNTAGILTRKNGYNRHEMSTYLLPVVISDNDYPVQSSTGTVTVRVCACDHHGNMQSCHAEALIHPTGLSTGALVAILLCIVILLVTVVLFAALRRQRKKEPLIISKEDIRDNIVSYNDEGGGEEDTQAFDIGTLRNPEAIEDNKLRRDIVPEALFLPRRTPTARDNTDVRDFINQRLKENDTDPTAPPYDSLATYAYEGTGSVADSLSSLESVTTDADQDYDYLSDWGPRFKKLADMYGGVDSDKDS

[3] = target: T3, EC4 deletion mutant of human CDH6, on cells (human) (UniProt P55285); assay: as above
T3 sequence: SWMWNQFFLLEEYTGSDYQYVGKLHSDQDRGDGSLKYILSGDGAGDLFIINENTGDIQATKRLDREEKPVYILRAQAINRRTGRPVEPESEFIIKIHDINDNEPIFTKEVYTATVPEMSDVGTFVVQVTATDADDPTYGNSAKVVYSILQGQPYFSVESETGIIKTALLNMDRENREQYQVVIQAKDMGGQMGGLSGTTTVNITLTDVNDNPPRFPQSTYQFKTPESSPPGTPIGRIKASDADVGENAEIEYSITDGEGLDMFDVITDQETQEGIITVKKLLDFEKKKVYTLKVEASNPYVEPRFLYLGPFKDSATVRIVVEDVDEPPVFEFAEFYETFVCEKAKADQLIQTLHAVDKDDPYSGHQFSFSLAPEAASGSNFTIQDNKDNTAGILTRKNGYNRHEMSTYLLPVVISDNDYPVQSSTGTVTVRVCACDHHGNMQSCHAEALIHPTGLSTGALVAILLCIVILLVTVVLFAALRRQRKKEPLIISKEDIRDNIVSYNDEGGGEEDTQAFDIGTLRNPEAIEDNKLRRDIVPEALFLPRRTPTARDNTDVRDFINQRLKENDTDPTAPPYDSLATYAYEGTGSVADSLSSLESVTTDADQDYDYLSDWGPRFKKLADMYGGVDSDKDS

[4] = target: T4, EC5 deletion mutant of human CDH6, on cells (human) (UniProt P55285); assay: as above
T4 sequence: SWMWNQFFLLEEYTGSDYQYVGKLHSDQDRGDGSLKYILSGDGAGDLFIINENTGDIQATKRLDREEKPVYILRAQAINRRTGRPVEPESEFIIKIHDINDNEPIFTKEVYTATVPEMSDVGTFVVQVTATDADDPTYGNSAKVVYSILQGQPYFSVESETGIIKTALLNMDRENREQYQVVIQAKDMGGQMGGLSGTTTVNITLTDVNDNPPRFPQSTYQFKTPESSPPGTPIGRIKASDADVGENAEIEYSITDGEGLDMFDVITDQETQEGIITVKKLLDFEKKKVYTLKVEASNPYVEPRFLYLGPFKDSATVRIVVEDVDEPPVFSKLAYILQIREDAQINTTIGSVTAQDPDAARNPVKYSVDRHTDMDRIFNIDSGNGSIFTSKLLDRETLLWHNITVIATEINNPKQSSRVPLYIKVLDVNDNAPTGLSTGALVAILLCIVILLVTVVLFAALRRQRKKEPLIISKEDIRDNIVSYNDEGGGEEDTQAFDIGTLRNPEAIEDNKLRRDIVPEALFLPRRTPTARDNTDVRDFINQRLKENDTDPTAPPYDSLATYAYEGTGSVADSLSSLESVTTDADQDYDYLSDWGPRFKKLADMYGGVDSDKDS

[5] = target: T1, EC1 deletion mutant of human CDH6, on cells (human); assay: flow cytometry; 293α cells transfected with EC1-deleted hCDH6 (open line) against untransfected 293α cells (shaded); antibody 20 nM; anti-rat IgG-FITC
[6] = target: T2, EC2 deletion mutant of human CDH6, on cells (human); assay: flow cytometry; 293α cells transfected with EC2-deleted hCDH6 (open line) against untransfected 293α cells (shaded); antibody 20 nM; anti-rat IgG-FITC
[7] = target: T3, EC4 deletion mutant of human CDH6, on cells (human); assay: flow cytometry; 293α cells transfected with EC4-deleted hCDH6 (open line) against untransfected 293α cells (shaded); antibody 20 nM; anti-rat IgG-FITC
[8] = target: T4, EC5 deletion mutant of human CDH6, on cells (human); assay: flow cytometry; 293α cells transfected with EC5-deleted hCDH6 (open line) against untransfected 293α cells (shaded); antibody 20 nM; anti-rat IgG-FITC
[9] = target: T1, EC1 deletion mutant of human CDH6, on cells (human); assay: flow cytometry, transfected 293α cells
[10] = target: T2, EC2 deletion mutant of human CDH6, on cells (human); assay: flow cytometry, transfected 293α cells
[11] = target: T3, EC4 deletion mutant of human CDH6, on cells (human); assay: flow cytometry, transfected 293α cells
[12] = target: T4, EC5 deletion mutant of human CDH6, on cells (human); assay: flow cytometry, transfected 293α cells
[13] = target: T1, EC1 deletion mutant of human CDH6, on cells (human); assay: flow cytometry; 293α cells transfected with EC1-deleted hCDH6 (open line) against untransfected 293α cells (shaded); APC anti-human IgG goat F(ab')2; antibody concentration not given
[14] = target: T2, EC2 deletion mutant of human CDH6, on cells (human); assay: flow cytometry; 293α cells transfected with EC2-deleted hCDH6 (open line) against untransfected 293α cells (shaded); APC anti-human IgG goat F(ab')2; antibody concentration not given
[15] = target: T3, EC4 deletion mutant of human CDH6, on cells (human); assay: flow cytometry; 293α cells transfected with EC4-deleted hCDH6 (open line) against untransfected 293α cells (shaded); APC anti-human IgG goat F(ab')2; antibody concentration not given
[16] = target: T4, EC5 deletion mutant of human CDH6, on cells (human); assay: flow cytometry; 293α cells transfected with EC5-deleted hCDH6 (open line) against untransfected 293α cells (shaded); APC anti-human IgG goat F(ab')2; antibody concentration not given

Measured: binding

B1: rat anti-human CDH6 monoclonal antibody rG056 (antibody, rat IgG2b, V domains shown)
VH: EVQLQESGPGLVKPSQSLSLTCSVTDYSITTYFWGWIRKFPGNKMEWMGYMSYRGGTSYNPSLKSRISITRDTSKNQFFLQLNSVTTEDTATYYCARCPNYGGHSLVFDYWGQGVMVTVSS
VL: DVQMTQSPSSLAASPGESVSISCRATKSIGIYLAWYQQKPGKTFKLLIYSGSTLQSGTPSRFSGSGSGTDFTLTIRSLEPEDFGLYFCQQFYENPFTFGSGTKLEIRR
binds: [1] | [2] | [3] | [4] | [5] | [6] | [7] | [8]

B2: rat anti-human CDH6 monoclonal antibody rG055 (antibody, rat IgG2b, V domains shown)
VH: EVQLQESGPGLVRPSQSLSLSCSVTDYSITSNYWGWIRRFPGNKMEWMGYITYSGYTSYNPSLQSRISITRDTSKNQFFLQLNSVTAEDTATYYCARSINHGGYSYVVDAWGPGASVTVSS
VL: DVQMTHSPSYLAASPGESVSISCKTSKNISNYLVWYQQKPGEAYKLLIYSGSTLQSGTPSRFSGSGSGTDFTLTIRSLEPEDFGLYFCQQYYEKPFTFGSGTKLEIKR
binds: [1] | [2] | [3] | [4] | [5] | [6] | [7] | [8]

B3: rat anti-human CDH6 monoclonal antibody rG061 (antibody, rat IgG2b, V domains shown)
VH: EVQLQESGPGLVKPSQSLSLTCSVTGYSITTYYWGWIRKFPGNKMEWMGYISYSGRTSYNPSLKSRMSITRDASKNQFFLQLNSVTTDDTATYYCARSPINHGGYWYFDFWGPGTMVTVSS
VL: DVQMTQSPSYLAASPGESVSISCKATKSISNYLAWYQQKPGEAYKVLIYSGSTLQSGTPSRFSGSGSGTDFTLTIRSLEPEDFGLYSCQQYYEKPLTFGSGTKLEIKR
binds: [1] | [2] | [3] | [4] | [5] | [6] | [7] | [8]

B4: humanized anti-CDH6 antibody H01L02 (antibody, human IgG1, kappa, V domains shown)
VH: EVQLVQSGAEVKKPGASVKVSCKASGYTFTRNFMHWVRQAPGQGLEWMGWIYPGDGETEYAQKFQGRVTITADTSTSTAYMELSSLRSEDTAVYYCARGVYGGFAGGYFDFWGQGTLVTVSS
VL: DIQMTQSPSSLSASVGDRVTITCKASQNIYKNLAWYQQKPGKAPKLLIYDANTLQTGVPSRFSGSGSGSDFTLTISSLQPEDFATYFCQQYYSGWAFGQGTKVEIKR
binds: [9] | [10] | [11] | [12] | [13] | [14] | [15] | [16]

B5: rat anti-human CDH6 monoclonal antibody rG019 (antibody, rat IgG2b, V domains shown)
VH: QVQLQQSGAELVKPGSSVKISCKASGYTFTRNFMHWIKQQPGNGLEWIGWIYCGDGETEYNQKFNGKATLTADRSSSTAYMELSRLTSEDSAVYFCARGVYGGFAGGYFDFWGQGVMVTVSS
VL: DIQMTQSPSLLSASVGDRVTLNCKASQNIYKNLAWYQQKLGEGPKLLIYDANTLQTGIPSRFSGSGSGSDFTLTISSLQPEDVATYFCQQYYSGWAFGGVTNLELKRA
binds: [1] | [2] | [3] | [4] | [5] | [6] | [7] | [8]
